Measurements taken from PubChem BioAssay AID2662 (National Center for Advancing Translational Sciences (NCATS), 2010).
In all, about 290,000 compounds went through this assay and about 110 (0.038%) were called active. Inconclusive means that the source gave no clear call. Such entries were picked first, then a sample of the others. Calls follow the shape of the dose curve; as a rule, active = well fitted inhibition curve with a large enough effect in the polarisation, with a control signal flat (not every such curve was filed as active); inconclusive = small, poorly fitted or top-dose-only effect, or effect the other way, or a change in a side signal; inactive = no such curve, though single readings can be large or run the other way; the % refers to the polarisation. A potency beside an inconclusive call is a rough fit, not a confirmed value. “Side channel” marks fits to a control or component signal instead of the main read-out.

Amino acid sequences for entries named in this document (tags omitted).
UniProt Q03164, whole entry, looked up: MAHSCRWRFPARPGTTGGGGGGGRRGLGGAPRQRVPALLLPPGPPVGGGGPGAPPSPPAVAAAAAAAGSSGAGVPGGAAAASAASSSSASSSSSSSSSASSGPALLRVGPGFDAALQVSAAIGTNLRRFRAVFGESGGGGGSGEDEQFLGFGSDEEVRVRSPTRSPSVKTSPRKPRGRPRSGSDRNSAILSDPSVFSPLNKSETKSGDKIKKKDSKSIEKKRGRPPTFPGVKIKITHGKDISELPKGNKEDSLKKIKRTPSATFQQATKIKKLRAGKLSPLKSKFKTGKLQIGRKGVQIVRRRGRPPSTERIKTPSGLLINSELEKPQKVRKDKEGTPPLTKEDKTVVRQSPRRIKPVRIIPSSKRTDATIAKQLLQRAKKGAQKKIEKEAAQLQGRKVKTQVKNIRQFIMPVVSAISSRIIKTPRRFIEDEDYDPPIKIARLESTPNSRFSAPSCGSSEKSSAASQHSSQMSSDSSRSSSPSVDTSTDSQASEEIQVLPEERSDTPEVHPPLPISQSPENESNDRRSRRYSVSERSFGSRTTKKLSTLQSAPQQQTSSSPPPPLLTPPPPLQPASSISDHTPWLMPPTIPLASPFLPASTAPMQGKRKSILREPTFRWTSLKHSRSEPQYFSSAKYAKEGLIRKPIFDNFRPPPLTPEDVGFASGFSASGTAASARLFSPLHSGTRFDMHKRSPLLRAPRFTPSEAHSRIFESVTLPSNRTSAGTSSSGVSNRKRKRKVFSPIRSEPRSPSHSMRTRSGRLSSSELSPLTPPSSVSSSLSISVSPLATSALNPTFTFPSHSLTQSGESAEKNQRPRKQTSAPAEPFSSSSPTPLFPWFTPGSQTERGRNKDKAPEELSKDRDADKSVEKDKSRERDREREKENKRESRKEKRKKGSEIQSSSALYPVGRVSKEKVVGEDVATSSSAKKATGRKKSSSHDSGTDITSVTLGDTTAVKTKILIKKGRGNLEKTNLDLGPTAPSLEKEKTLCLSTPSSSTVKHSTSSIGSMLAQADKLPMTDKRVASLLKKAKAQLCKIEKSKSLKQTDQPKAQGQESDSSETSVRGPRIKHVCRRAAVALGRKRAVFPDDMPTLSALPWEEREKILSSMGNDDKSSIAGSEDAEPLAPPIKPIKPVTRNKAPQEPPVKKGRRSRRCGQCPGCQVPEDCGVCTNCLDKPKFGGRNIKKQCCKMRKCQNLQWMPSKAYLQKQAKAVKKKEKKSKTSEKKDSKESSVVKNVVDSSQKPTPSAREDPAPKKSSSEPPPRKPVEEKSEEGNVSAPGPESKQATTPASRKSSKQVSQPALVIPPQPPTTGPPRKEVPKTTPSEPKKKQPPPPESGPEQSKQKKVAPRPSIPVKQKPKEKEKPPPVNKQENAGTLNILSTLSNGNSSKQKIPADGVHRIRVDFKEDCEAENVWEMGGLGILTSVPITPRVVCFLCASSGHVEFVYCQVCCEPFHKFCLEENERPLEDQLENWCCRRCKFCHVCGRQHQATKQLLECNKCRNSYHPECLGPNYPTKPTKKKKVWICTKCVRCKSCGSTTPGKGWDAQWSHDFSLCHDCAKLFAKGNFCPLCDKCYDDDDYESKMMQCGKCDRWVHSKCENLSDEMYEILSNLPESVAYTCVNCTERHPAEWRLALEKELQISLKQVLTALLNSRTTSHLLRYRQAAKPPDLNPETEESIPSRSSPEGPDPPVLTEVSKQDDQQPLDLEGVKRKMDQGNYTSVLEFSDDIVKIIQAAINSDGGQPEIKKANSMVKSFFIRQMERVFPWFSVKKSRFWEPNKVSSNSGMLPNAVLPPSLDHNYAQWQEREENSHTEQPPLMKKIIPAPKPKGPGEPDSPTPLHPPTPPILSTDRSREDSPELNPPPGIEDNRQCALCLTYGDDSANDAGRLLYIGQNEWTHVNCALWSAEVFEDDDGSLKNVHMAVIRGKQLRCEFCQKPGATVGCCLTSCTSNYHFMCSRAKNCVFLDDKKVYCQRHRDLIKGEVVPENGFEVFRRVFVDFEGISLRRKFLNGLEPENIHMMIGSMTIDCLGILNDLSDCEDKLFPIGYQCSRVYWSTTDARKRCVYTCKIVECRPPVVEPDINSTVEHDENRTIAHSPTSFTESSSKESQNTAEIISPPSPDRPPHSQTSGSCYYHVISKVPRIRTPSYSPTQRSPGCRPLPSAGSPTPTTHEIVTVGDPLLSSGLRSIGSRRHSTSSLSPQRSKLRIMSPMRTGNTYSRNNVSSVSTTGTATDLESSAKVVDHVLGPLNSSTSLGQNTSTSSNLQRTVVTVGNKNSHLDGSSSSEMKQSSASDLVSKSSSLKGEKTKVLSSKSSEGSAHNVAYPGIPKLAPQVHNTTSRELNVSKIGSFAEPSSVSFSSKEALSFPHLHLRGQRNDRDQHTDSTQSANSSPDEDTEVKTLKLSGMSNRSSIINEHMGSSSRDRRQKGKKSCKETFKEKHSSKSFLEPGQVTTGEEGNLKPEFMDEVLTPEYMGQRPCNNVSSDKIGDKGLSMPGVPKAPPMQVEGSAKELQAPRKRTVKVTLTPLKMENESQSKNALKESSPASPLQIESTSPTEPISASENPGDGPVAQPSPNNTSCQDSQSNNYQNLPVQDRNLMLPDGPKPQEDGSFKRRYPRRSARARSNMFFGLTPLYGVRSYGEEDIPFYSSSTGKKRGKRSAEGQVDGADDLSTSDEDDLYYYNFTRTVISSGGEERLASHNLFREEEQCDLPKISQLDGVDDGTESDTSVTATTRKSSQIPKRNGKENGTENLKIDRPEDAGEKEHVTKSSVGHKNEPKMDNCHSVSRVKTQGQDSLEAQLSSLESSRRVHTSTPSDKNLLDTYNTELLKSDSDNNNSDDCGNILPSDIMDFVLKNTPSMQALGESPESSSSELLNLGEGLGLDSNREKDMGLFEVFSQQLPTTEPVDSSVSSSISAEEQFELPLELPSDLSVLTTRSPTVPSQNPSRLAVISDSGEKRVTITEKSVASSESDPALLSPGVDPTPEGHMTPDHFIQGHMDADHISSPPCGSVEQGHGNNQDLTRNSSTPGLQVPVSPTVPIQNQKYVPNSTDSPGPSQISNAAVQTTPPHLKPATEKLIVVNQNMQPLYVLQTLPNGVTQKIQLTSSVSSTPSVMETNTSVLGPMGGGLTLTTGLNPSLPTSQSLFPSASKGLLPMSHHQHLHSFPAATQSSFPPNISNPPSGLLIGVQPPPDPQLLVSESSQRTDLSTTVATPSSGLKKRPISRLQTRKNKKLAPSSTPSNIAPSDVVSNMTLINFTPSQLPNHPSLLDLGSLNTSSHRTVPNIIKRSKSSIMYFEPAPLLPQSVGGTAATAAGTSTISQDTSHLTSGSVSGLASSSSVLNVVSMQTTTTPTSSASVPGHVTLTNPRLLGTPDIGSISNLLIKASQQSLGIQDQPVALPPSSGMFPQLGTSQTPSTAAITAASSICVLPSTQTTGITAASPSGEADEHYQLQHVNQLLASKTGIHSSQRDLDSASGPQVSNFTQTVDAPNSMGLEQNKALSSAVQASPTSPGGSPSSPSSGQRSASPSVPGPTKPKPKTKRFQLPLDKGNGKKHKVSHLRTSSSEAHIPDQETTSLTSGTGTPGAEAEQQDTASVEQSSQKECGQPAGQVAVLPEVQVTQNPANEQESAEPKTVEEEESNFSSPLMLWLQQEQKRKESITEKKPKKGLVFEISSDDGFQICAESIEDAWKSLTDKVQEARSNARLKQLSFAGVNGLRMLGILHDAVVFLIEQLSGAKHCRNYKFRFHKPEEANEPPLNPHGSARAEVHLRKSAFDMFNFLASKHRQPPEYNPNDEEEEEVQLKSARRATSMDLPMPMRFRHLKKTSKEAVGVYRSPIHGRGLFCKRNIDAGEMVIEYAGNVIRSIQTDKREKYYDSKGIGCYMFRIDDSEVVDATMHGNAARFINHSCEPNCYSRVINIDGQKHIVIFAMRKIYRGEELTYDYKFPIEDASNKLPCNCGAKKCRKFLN

Molecular target: Histone-lysine N-methyltransferase 2A (Homo sapiens) (UniProt Q03164)
Assay: qHTS Fluorescence Polarization Assay for Inhibitors of MLL CXXC domain - DNA interaction
Conditions: MLL-CXXC / FITC-HOXA9 DNA fluorescence polarization; activity change, negative = inhibition: at 115 µM (top of the series)
How it was run: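 Steps: dispense CXXC domain solution (7 uM) → pin compounds or unlabeled HOX-A9 DNA control → 5 min ambient → add FLSN-HOX-A9 solution (50 nM) → spin → 30 min ambient → fluorescence polarization. Tris pH 7.5/NaCl/DTT/BSA buffer.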
Potency is read from the fitted curve at half-maximal effect.

| Structure (SMILES) | Potency | activity change, negative = inhibition |
| --- | --- | --- |
| C=CCN1C(=O)c2cccc3c(N4CCCCC4)ccc(c23)C1=O | inconclusive: 28.2 µM [fluorescent, side channel, partial curve] |  |
| N#Cc1ccsc1NC(=O)c1ccc(Cl)c([N+](=O)[O-])c1 |  | inactive: -1.84% |
| Cc1ccc2c(c1)c(/C=C/c1cc[n+](C)cc1)c(C)n2C | inconclusive: 15.8 µM [fluorescent, single point] |  |
| CC(=O)Nc1ccc(S(=O)(=O)Nc2nc3ccccc3nc2-n2ccc(=NC(=O)c3ccc(F)cc3)cc2)cc1 | inconclusive: 63.1 µM [fluorescent, side channel, single point] |  |
| O=C(Nc1nnc(SCc2cccnc2)s1)C1CC(=O)N(c2ccc(F)cc2)C1 (stereo not drawn) |  | inactive: 25.7% |
| CC(=O)c1cccc(NC(=O)c2ccc(NC(=O)CC3SC(N4CCCCC4)=NC3=O)cc2)c1 (stereo not drawn) | inconclusive: 17.8 µM [fluorescent, side channel, partial curve] |  |
| COc1ccc(OCc2cc(C(=O)N3CCCC(O)C3)no2)c2ccccc12 (stereo not drawn) |  | inactive: 12.6% |
| COc1cc(C2Nc3ccccc3C(=O)N2c2ccccc2)ccc1O (stereo not drawn) |  | inactive: -1.35% |
| C/C(=N\NC(=O)c1c(Cl)c(C)nn1C)c1cccc(NC(=O)c2cccc(F)c2)c1 |  | inconclusive: 15.1% [phenotype inactive] |
| COc1ccnc(NCc2cccnc2)c1C#N |  | inactive: -24.5% |
| O=C(NC1CCN(Cc2ccccc2)CC1)c1ccccc1OCc1ccccc1 | inconclusive: 70.8 µM [fluorescent, side channel, single point] |  |
| CCn1c(=O)cc(OCC(=O)NCCCN2CCC(C)CC2)c2ccccc21 |  | inactive: 17.2% |
| N#CC12COC3(CCCCC3C1(C#N)C#N)OC2=N (stereo not drawn) |  | inactive: -0.0342% |
| CCOC(=O)N1CCC(n2c(SCC(=O)Nc3nccs3)nc3ccsc3c2=O)CC1 |  | inactive: 12.6% |
| O=S(Cc1cc(Sc2ccccc2)nc(-c2ccccc2)n1)c1ccccc1 (stereo not drawn) |  | inactive: -1.12% |
| O=C(NCC(O)CO)c1ccc2[nH]c3ccccc3c2c1 (stereo not drawn) |  | inactive: -5.58% |
| CCOc1cc(CNC(C)(C)CO)cc(Br)c1OCc1ccc(Cl)cc1Cl | inconclusive: 15.8 µM [quencher, side channel, full curve] |  |
| O=C(NCCc1ccccc1)c1ccc2nc(-c3ccco3)c(-c3ccco3)nc2c1 | inconclusive: 12.6 µM [inhibitor, full curve] |  |
| C=CCOc1ccc(/C=C2\SC(=Nc3cccnc3)NC2=O)cc1 | inconclusive: 50.1 µM [fluorescent, side channel, single point] |  |
| OCCCCNc1cccc2ccccc12 |  | inactive: 9.75% |
| O=C(Nc1cccc(N2C(=O)C3CCCCC3C2=O)c1)c1ccccc1 (stereo not drawn) |  | inactive: 10.6% |

Three compounds already listed, ordered by molar mass, rising.

| Structure (SMILES) | Potency | activity change, negative = inhibition |
| --- | --- | --- |
| N#CC12COC3(CCCCC3C1(C#N)C#N)OC2=N (stereo not drawn) |  | inactive: -0.0342% |
| O=C(NC1CCN(Cc2ccccc2)CC1)c1ccccc1OCc1ccccc1 | inconclusive: 70.8 µM [fluorescent, side channel, single point] |  |
| O=S(Cc1cc(Sc2ccccc2)nc(-c2ccccc2)n1)c1ccccc1 (stereo not drawn) |  | inactive: -1.12% |

Further entries.

| Structure (SMILES) | Potency | activity change, negative = inhibition |
| --- | --- | --- |
| CC1=C(C(=O)Nc2ccccc2)C(c2ccccc2[N+](=O)[O-])NC(=O)N1 (stereo not drawn) | inconclusive: 25.1 µM [fluorescent, side channel, partial curve] |  |
| Cn1c2c(c(=O)[nH]c1=O)C(c1ccc(O)cc1)C1=C(N2)c2ccccc2C1=O (stereo not drawn) | inconclusive: 39.8 µM [quencher, side channel, partial curve] |  |
| Cc1cccc(CN2C(=O)/C(=C\c3ccc(C(=O)NCCCN4CCN(C)CC4)cc3)Oc3ccccc32)c1 | inconclusive: 31.6 µM [quencher, partial curve] |  |
| O=C1c2[nH]nc(-c3ccccc3O)c2C(c2cccc(Cl)c2)N1CC1CCCO1 (stereo not drawn) |  | inactive: 13.4% |
| Oc1ccc2ccccc2c1C=Nc1ccc(Cl)cn1 | inconclusive: 4.47 µM [fluorescent, side channel, full curve, poor fit] |  |
| COc1ccc(N2C(=O)C(CC(N)=O)N(NC(=O)c3cccc(OC)c3)C2=S)cc1 (stereo not drawn) |  | inactive: 10.7% |
| COc1ccc([N+](=O)[O-])cc1Nc1c2ccccc2nc2ccccc12 | inconclusive: 20 µM [quencher, side channel, partial curve] |  |
| COc1ccc(C2=CC(c3ccc(C)cc3)n3nnnc3N2)cc1 (stereo not drawn) |  | inactive: -1.21% |
| Cc1oc2cc(OCC(=O)O)ccc2c(=O)c1Oc1ccccc1 | inconclusive: 10 µM [quencher, side channel, single point] |  |
| Cc1ccc(-n2c(=S)sc3c(=O)n(-c4ccccc4F)c(SCC(=O)O)nc32)cc1C | inconclusive: 14.1 µM [inhibitor, single point] |  |
| CCCCN(C(=O)C1CC(=O)N(c2ccc(OC)cc2OC)C1)c1c(N)n(CC(C)C)c(=O)[nH]c1=O (stereo not drawn) | inconclusive: 8.91 µM [fluorescent, side channel, single point] |  |
| Cc1nc2c(C)cccc2c(SC(=N)N)c1CC=C(Cl)Cl |  | inactive: 10.5% |
| O=C(N/N=C/c1cc([N+](=O)[O-])ccc1O)c1cccc2ccccc12 | inconclusive: 3.98 µM [quencher, side channel, partial curve] |  |
| COc1ccc(/C=C/C(=O)NCc2ccc(F)cc2)cc1S(=O)(=O)N1CCOCC1 | inconclusive: 28.2 µM [inhibitor, partial curve] |  |
| COc1ccc(C2NCCc3c2[nH]c2ccccc32)cc1COc1ccc(F)cc1 (stereo not drawn) | inconclusive: 20 µM [fluorescent, side channel, partial curve, poor fit] |  |
| Cc1cccc(S(=O)(=O)NCCNS(=O)(=O)c2cccc(C)c2)c1 | inconclusive: 70.8 µM [fluorescent, side channel, single point] |  |
| CCOC(=O)CN1C(=O)S/C(=C/c2ccc(N3CCCCC3)o2)C1=O | inconclusive: 4.47 µM [fluorescent, side channel, full curve] |  |
| CCOc1ccc(C(C)NC(=S)NCc2ccc(F)cc2)cc1 (stereo not drawn) | inconclusive: 12.6 µM [fluorescent, side channel, single point] |  |
| CCN(CC)c1ccc(C=C(c2nnnn2-c2ccccc2)c2nnnn2-c2ccccc2)cc1 | inconclusive: 63.1 µM [fluorescent, side channel, single point] |  |
| COc1ccccc1CNC(=O)C(=O)NCC1OCCN1S(=O)(=O)c1ccccc1 (stereo not drawn) | inconclusive: 14.1 µM [quencher, side channel, single point] |  |
| COc1ccc(/C=N/NC(=O)C(=O)/C=C2\NC3(CCCC3)Cc3ccccc32)cc1 | inconclusive: 56.2 µM [quencher, side channel, single point] |  |

Look-ups from the entries so far.
`O=C(N/N=C/c1cc([N+](=O)[O-])ccc1O)c1cccc2ccccc12` | Potency: inconclusive: 3.98 µM [quencher, side channel, partial curve]
`COc1ccc(C2NCCc3c2[nH]c2ccccc32)cc1COc1ccc(F)cc1` (stereo not drawn) | Potency: inconclusive: 20 µM [fluorescent, side channel, partial curve, poor fit]

Later entries:

| Structure (SMILES) | Potency | activity change, negative = inhibition |
| --- | --- | --- |
| COc1cc(SC)ccc1C(=O)Nc1ncc(Cl)cc1Cl | inconclusive: 14.1 µM [inhibitor, single point] |  |
| O=C(Nc1ccccc1)c1nn(-c2ccccc2)c(=O)cc1C(F)(F)F | inconclusive: 11.2 µM [fluorescent, side channel, partial curve] |  |
| O=C(Cn1nc(C(=O)O)c2ccccc2c1=O)c1c[nH]c2ccccc12 | inconclusive: 1.41 µM [quencher, side channel, full curve] |  |
| Cn1c(=O)c(N)c2c3c(c(Br)ccc31)C(=O)c1ccccc1-2 | inconclusive: 3.98 µM [fluorescent, side channel, full curve] |  |
| CCOC(=O)/C=c1\s/c(=C\c2ccc3cc(OC)ccc3c2)c(=O)n1CC(=O)NCc1ccc2c(c1)OCO2 | inconclusive: 31.6 µM [fluorescent, side channel, single point] |  |
| CCOc1cccc(C2C(C#N)=C(N)Oc3cc(C)[nH]c(=O)c32)c1OCC (stereo not drawn) | inconclusive: 7.94 µM [quencher, side channel, full curve] |  |
| CC(=O)N1CCCN(C(=O)c2ccc3nc(Cc4cccc(Cl)c4)oc3c2)CC1 | inconclusive: 11.2 µM [quencher, side channel, single point] |  |
| CN(C)c1ccc(C(=C2C=CC(=[N+](C)C)C=C2)c2ccc(N(C)C)cc2)cc1 |  | inactive: 8.04% |
| CNC(=S)N/N=C/c1ccc2c(c1)OCCO2 | inconclusive: 14.1 µM [fluorescent, side channel, full curve] |  |
| CCn1c(SCC(=O)Nc2ccc(N3CCOCC3)cc2)nnc1-c1ccncc1 | inconclusive: 35.5 µM [fluorescent, side channel, single point] |  |
| Cc1ccc2c(CN3CCN(Cc4ccccc4)CC3)cc(=O)oc2c1C |  | inactive: -0.804% |
| CCOc1ccc(-n2cnnn2)cc1S(=O)(=O)NCc1ccccc1 |  | inactive: -5.05% |
| O=C(Nc1cccc(Cl)c1)Nn1cnnc1 | inconclusive: 15.8 µM [inhibitor, single point] |  |
| Cc1ccc(C)c(S(=O)(=O)c2c(C)cc(C)nc2Cl)c1 | inconclusive: 44.7 µM [fluorescent, side channel, single point] |  |
| Cc1ccc(N2CN(CCC3=CCCCC3)CNC2=S)cc1 | inconclusive: 8.91 µM [quencher, side channel, single point] |  |
| COc1ccc(C)cc1NC(=O)c1cc2c(=O)n3ccccc3nc2n1C | inconclusive: 31.6 µM [fluorescent, side channel, partial curve] |  |
| COc1ccc(/C=N/Nc2cc(C)nc3ccc(OC)cc23)c(OC)c1 | inconclusive: 7.08 µM [quencher, side channel, full curve] |  |
| COc1ccc(N=Cc2[nH]c3ccccc3c2O)cc1 | inconclusive: 15.8 µM [fluorescent, side channel, partial curve] |  |
| CCCCC(=O)NC(c1ccco1)c1cc(Cl)c2cccnc2c1O (stereo not drawn) |  | inactive: -17.5% |
| CCN(CC)S(=O)(=O)c1cc([N+](=O)[O-])ccc1NNC(=O)Nc1ccc(Cl)c(Cl)c1 |  | inactive: -11.2% |
| Oc1c(Cl)cc(Cl)cc1C=Nc1cc(C(F)(F)F)ccc1N1CCc2ccccc2C1 | inconclusive: 63.1 µM [fluorescent, side channel, single point] |  |
